Positions count from the first letter of the chain named. Numbers in names are those of the source. Like-named read-outs stand apart in the source and are kept apart here. These are yes or no findings as the source states them, for the method shown. Some entries that bind do so weakly or less than the wild type.
B1: recombinant HC1 (rHC1), wild type; heavy chain 1 of inter-α-inhibitor (protein, UniProt P19827 35-672)
chain: SKSSEKRQAVDTAVDGVFIRSLKVNCKVTSRFAHYVVTSQVVNTANEAREVAFDLEIPKTAFISDFAVTADGNAFIGDIKDKVTAWKQYRKAAISGENAGLVRASGRTMEQFTIHLTVNPQSKVTFQLTYEEVLKRNHMQYEIVIKVKPKQLVHHFEIDVDIFEPQGISKLDAQASFLPKELAAQTIKKSFSGKKGHVLFRPTVSQQQSCPTCSTSLLNGHFKVTYDVSRDKICDLLVANNHFAHFFAPQNLTNMNKNVVFVIDISGSMRGQKVKQTKEALLKILGDMQPGDYFDLVLFGTRVQSWKGSLVQASEANLQAAQDFVRGFSLDEATNLNGGLLRGIEILNQVQESLPELSNHASILIMLTDGDPTEGVTDRSQILKNVRNAIRGRFPLYNLGFGHNVDFNFLEVMSMENNGRAQRIYEDHDATQQLQGFYSQVAKPLLVDVDLQYPQDAVLALTQNHHKQYYEGSEIVVAGRIADNKQSSFKADVQAHGEGQEFSITCLVDEEEMKKLLRERGHMLENHVERLWAYLTIQELLAKRMKVDREERANLSSQALQMSLDYGFVTPLTSMSIRGMADQDGLKPTIDKPSEDSPPLEMLGPRRTFVLSALQPSPTHSSSNTQRLPDRVTGVDTD
B2: rHC1 D298A (MIDAS site mutant) (protein, UniProt P19827 35-672)
chain: B1 chain with D264A

Columns and labels:
[1] = target: T1, recombinant HC1 (rHC1), wild type; heavy chain 1 of inter-α-inhibitor (human) (UniProt P19827); assay: SAXS
T1 sequence: B1 chain

[2] = target: T1, recombinant HC1 (rHC1), wild type; heavy chain 1 of inter-α-inhibitor (human); assay: SAXS; remark: listed apart in the source
[3] = target: T1, recombinant HC1 (rHC1), wild type; heavy chain 1 of inter-α-inhibitor (human); assay: SAXS; remark: listed apart in the source
[4] = target: T1, recombinant HC1 (rHC1), wild type; heavy chain 1 of inter-α-inhibitor (human); assay: SAXS; remark: listed apart in the source
[5] = target: T1, recombinant HC1 (rHC1), wild type; heavy chain 1 of inter-α-inhibitor (human); assay: SEC
[6] = target: T2, rHC1 D298A (MIDAS site mutant) (human) (UniProt P19827); assay: SAXS
T2 sequence: B1 chain with D264A

[7] = target: T2, rHC1 D298A (MIDAS site mutant) (human); assay: SAXS; remark: listed apart in the source

Binder	binding [1]	binding [2]	binding [3]	binding [4]	binding [5]	binding [6]	binding [7]
B1	binds weakly	binds weakly	no binding (condition: 5mM CaCl2)	no binding (condition: 2.5mM EDTA)	binds weakly	–	–
B2	–	–	–	–	–	no binding	no binding

— doi:10.1101/695700
